# Results published in PubChem BioAssay AID1508600 (Functional Genomics Laboratory (NCATS/FGL), 2020).
# The whole screen tested about 53,000 sequences, of which about 3,700 (7%) were called active.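 Rule for the calls: active = gene knockdowns whose robust z-score for IL-1 alpha signal is at least 2 or at most -2, so actives lie on both sides; inactive = the rest.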 The list shows a part of the results.
# Test: Components of the Cytosolic LPS Sensing Pathway: Gene Identification via Genome-wide siRNA Screen
# Conditions: RAW264.7 macrophages, IL-1a HTRF, actives lie on both sides, screened at 100 nM (by protocol), cells primed 5 h with Pam3CSK4 first
# Source text: Non-canonical inflammasome activation by cytosolic LPS is a critical component of the host response to Gram-negative bacterial infection, however we lack a comprehensive understanding of the cellular processes that control this pathway. Here we describe a genome-wide siRNA screen to identify genes regulating the mouse macrophage IL-1 alpha response to cytosolic LPS.
# RAW264.7 cells were maintained in complete DMEM media, comprising DMEM with 4.5 g/L glucose, 10% FBS (Gemini Bio-Products, West Sacramento, CA), 2 mM Glutamine (Lonza) and 20 mM HEPES (Lonza), hereafter complete DMEM.
# The RNAi screen was conducted in 384-well format using the Ambion Silencer Mouse Genome siRNA Library (#4391425), which consists of three unique, nonoverlapping, nonpooled siRNAs for each of 17,000 gene targets. siRNA reagents ([…]) were stamped into 384-well white flat-bottom microplates (Corning, 3570) using a Velocity11 VPrep liquid handling system (Agilent) integrated into a BioCel robotic platform (Agilent) in columns 1-22, leaving columns 23-24 empty for negative (Ambion, Negative control #1) and positive (mouse Casp4) controls, respectively. The median value of each plate's negative control column was used to normalize sample wells, and the positive control was used to assess transfection efficiency and assay performance.
# Lipofectamine RNAiMAX Transfection Reagent ([…]; Invitrogen) was added in […] serum-free, antibiotic-free media to plate wells using a Thermo Scientific Matrix WellMate and Microplate Stacker. Plates were incubated for 45 min at room temperature to allow for the sufficient formation of siRNA-lipid complexes. Cells were seeded at a density of 1x10^4 cells per well in 20 microL media containing 20% (vol/vol) FBS without antibiotics. The final concentration of siRNA in each well was 100 nM. Cells were cultured for 48h at 37 degrees C in 5% CO2 before addition of […] of TLR ligand Pam3CSK4 for 5 hours. The medium was then removed, replaced with […] growth media and cell were transfected with […] of LipidA and TransIT-TKO (Mirus) for 24 hour. At the end of the LipidA treatment, […] of supernatant was transferred to a 384 Greiner Bio-one non-binding low volume plate and […] of IL-1a HTRF reagent (Cisbio, 62MIL1APEH) was added and incubated at room temperature overnight. The plates were read on an EnVision plate reader (PerkinElmer). Cell viability was measured by adding 20ul Cell Titer Glo to the original plate and running a luminescence read on the EnVision. The quantified IL-1a signal for each siRNA gene-targeted well was divided by the median of the negative control wells and multiplied by 100 to achieve a negative control normalized value for each well/siRNA. This normalized value was then used to generate a robust z-score by first taking the log of each value and then by subtracting the median and dividing by the […].
row,Sequence,z-score
1,GGCCUUCACUAAGAGACGATT against C130073F10Rik,inactive: -0.0402
2,GGUACUGUGUUCUGUCUGCTT against B230325K18Rik,inactive: 0.884
3,CCCUUGUCUAAAAUAUACATT against Zfp941,inactive: -0.387
4,CCAUUAUGAGUGUGUUAAATT against Npc1,inactive: 0.84
5,GGAGGUAGGAAAGUGGAUCTT against Gdi1,inactive: -0.658
6,CCCAUGGAUUGGCAAGUUGTT against Sat1,inactive: -0.397
7,GGGCAUAUGAUAAUCAUACTT against Shpk,inactive: -1.01
8,CCCAAACGUGGAAGGACCUTT against Sgk2,inactive: -0.127
9,GGGUCUUUGUCAGACAAGCTT against Sftpc,inactive: 0.107
10,GGUUUUGGUAUCUCCAUGGTT against Olfr2,inactive: -0.48
11,CCAUGCUAUUCUGGUUUCATT against Tas2r138,inactive: 0.256
12,GCUCAGACCGUGAUUGUAUTT against Chchd10,inactive: -1.36
13,GCAAGACUGAAAAUCCUGATT against Timm8a2,inactive: -1.2
14,CCCUUGAGUCAUUCUCUAATT against Gsto1,inactive: 0.0391
15,CCAUACGAAAAAAACUGUCTT against Nfasc,inactive: -0.5
16,CGAAAUCGCGUUAUUUUCUTT against Rora,inactive: 1.21
17,GUGCAAGGUGUAUGAAUCUTT against Cldn5,inactive: 1.29
18,GCUGUUAGACCUCUUGAUUTT against Olfr1164,inactive: 0.0632
19,GGUUGUAGAUAUUUCAGACTT against Xiap,inactive: 0.444
20,ACAGGUACACUUCUUUGUGTT against Ccdc149,inactive: -1.84
21,GCUUACCUAACUCUUAAACTT against Adgrg6,inactive: 0.427
22,GGCACGGUGGUGAUAACUUTT against C5ar2,inactive: 1.12
23,GGUCUCUUUCAUGCUCGCATT against Agr3,active: 3.06

row,Sequence,z-score
1,GCGGCUAAUUUGCACUCGUTT against Jtb,inactive: 1.45
2,GCCCUCCUAUAUCGUAUGGTT against Fbxw14,inactive: -0.164
3,GGGUUAUCUCUUAAUGGCATT against Fundc1,inactive: -0.185
4,GCAGCUACUACACCAACCATT against Dlx2,active: -2.46
5,CCUUUGGCAACAUCGUUUATT against Arrdc4,inactive: 0.862
6,GUUGUCAAGAGAUACAUGUTT against Ugt2b37,inactive: 0.378
7,GGAACAUCCAUGUAUUCAATT against Ube2l3,inactive: 0.76
8,GGUCAUGUUUGGUUAGAAGTT against Immp1l,inactive: -0.748
9,GGGACCACCUUGAACACUATT against Slc52a3,inactive: 1.81
10,GGCAGUCUUGUCCCUUGUATT against Myl12a,inactive: -0.74
11,CCUAUAAAUGUCCUUAGUCTT against Ccdc115,inactive: 0.127
12,GCAACCUAUUUGUCUCUAUTT against Trhde,inactive: 1.02
13,GGACAGCAUGAUCCUACAATT against Smr2,inactive: -0.962
14,GCUACAACCUUGAGAAACUTT against Duoxa2,inactive: 0.706
15,CCUCACUGGUACAAUCCCATT against Tsg101,inactive: -0.906
16,CCAAGUAGAUAGGAAUUAUTT against Eps8,inactive: 2
17,GGGUGGACCUUCGGAAUUATT against Mrpl23,inactive: 1.52
18,GGCUUCAAAACAAACAUCATT against Hsd17b2,inactive: 0.289
19,GGAGACAGCAAAAGGGCUGTT against Macrod1,inactive: 1.18
20,GGAGGAAAAGAGACAGCUCTT against Kank2,active: -2.41
21,CCUGGUAAUCACAAUUUCGTT against Tor1b,inactive: -0.655
22,GCUCAAUGUUUGGCAACUUTT against Olfr1087,inactive: -1.7
23,GGAUUAUGGUCUCAUUGUCTT against Exd2,inactive: 0.0549

row,Sequence,z-score
1,GGAUAUGUACUGUCCAUCUTT against B3galt4,inactive: 0.563
2,GCAAGCACGUCAGAAUCUCTT against Pln,active: 2.32
3,GGAAGUCAUUCUUGAGAAGTT against Gm10413,inactive: 0.732
4,CCACUAUCGCAUACAGCAATT against Olfr215,inactive: 0.562
5,GCAGUCAUUCAAGGUUCCUTT against Hmces,inactive: -0.231
6,GGAAGUAUAAGUGAGCAGATT against Dbnl,inactive: -0.579
7,GCAUUUUGCUUACUUACUGTT against Marchf2,inactive: 0.0293
8,GCAAGUCAGACUCCUAGUGTT against Daw1,inactive: 1.36
9,CCUUUAGUGUGGGUUUAUUTT against Mcm10,inactive: 0.38
10,GCCAGUGUCUUAAAAGUUUTT against Trat1,inactive: -0.285
11,GGCUGGUUGAAGGUUGUGATT against Teddm1a,inactive: -1.03
12,GCACCUGACAGAUACUUCCTT against Ints4,active: -2.1
13,GGGCAAAAUAUAGCAAUGATT against Vmn1r233,active: -2.11
14,GGCACUACGUGAUGUAUUATT against Tle1,inactive: -0.276
15,GGCAGAAUAUGUCAACUCGTT against Ddx31,inactive: -1.21
16,CUUUUGUAAAGCCUUCCACTT against Zfp708,inactive: -0.259
17,GGAAGACACACAGUACAUGTT against Rfx2,active: 2.92
18,CCUAUACCUUGGACUUCCGTT against Mfsd2a,inactive: -1.46
19,GGUUGAAUGAGGUUAUAAGTT against Anks4b,inactive: -0.973
20,GGUCUUUUGGAAUCUCUGGTT against Crip3,inactive: -0.548
21,GGAACAAAUUAGAAUAGCUTT against Rnf11,inactive: -0.434
22,GGACAACAUUGACAAGUUCTT against Clcn7,inactive: 1.36
